Patent US20110229463A1 (SYMPHOGEN A S, published 2011)
No constants are given. Whether binding was seen depends on the method and setting. Some binding calls cover weakened binding; strength is not graded here.

B1: antibody 992 (antibody, human IgG1, kappa, V domains shown)
VH: EVQLQQPGSELVRPGASVKLSCKASGYTFTSYWMHWVKQRPGQGLEWIGNIYPGSRSTNYDEKFKSKATLTVDTSSSTAYMQLSSLTSEDSAVYYCTRNGDYYVSSGDAMDYWGQGTSVTVSS
VL: DIQMTQTTSSLSASLGDRVTISCRTSQDIGNYLNWYQQKPDGTVKLLIYYTSRLHSGVPSRFSGSGSGTDFSLTINNVEQEDVATYFCQHYNTVPPTFGGGTKLEIKR
notes: Chimeric mouse variable / human IgG1 kappa; the light chain entry includes the human kappa constant region; the end of the range is counted on the printed entry
B2: antibody 1030 (antibody, human IgG1, kappa, V domains shown)
VH: EVQLVESGGGLVKPGGSLKLSCAASGFTFSSYALSWVRQTPERRLEWVASISGVGSTYFPDSVKGRFTMSRDNARNILYLQMSSLRSEDTAMYYCARGSDGYFYAMDYWGQGTSVTVSS
VL: DIVLTQSPASLAVSLGQRATISCRASKSVSTSGYSFMHWYQLKPGQPPKLLIYLASNLESGVPARFSGSGSGTDFTLNIHPVEEEDAATYYCQHSREFPLTFGGGTKLEIKR
notes: Chimeric mouse/human IgG1 kappa
B3: antibody 1024 (antibody, human IgG1, kappa, V domains shown)
VH: QVQLQQPGAELVEPGGSVKLSCKASGYTFTSHWMHWVKQRPGQGLEWIGEINPSSGRNNYNEKFKSKATLTVDKSSSTAYMQFSSLTSEDSAVYYCVRYYGYDEAMDYWGQGTSVTVSS
VL: DIVMTQAAFSNPVTLGTSASISCRSSKSLLHSNGITYLYWYLQKPGQSPQLLIYQMSNLASGVPDRFSSSGSGTDFTLRISRVEAEDVGVYYCAQNLELPYTFGGGTKLEIKR
notes: as for B2
B4: antibody 1254 (antibody, human IgG1, kappa, V domains shown)
VH: EVQLVESGGGLVKPGGSLKLSCAASGFAYSTYDMSWVRQTPEKRLEWVAYISSGGDAAYYPDTVKGRFTISRDNAKNTLYLQMSSLKSEDTAMYYCARSRYGNYGDAMDYWGQGTSVTVSS
VL: DVVMTQTPLSLPVSLGDQASISCRSSQSLVHSNGNTYLHWYLQKPGQSPKLLLYKVSNRFSGVPDRFSGSGSGTDFTLKISRVESEDLGVYFCSQNTHVYTFGGGTKLEIKR
notes: Chimeric mouse/human IgG1 kappa; also called mAb 1254
B5: antibody 1229 (antibody, human IgG1, kappa, V domains shown)
VH: QVQLKESGPGLVAPSQSLSITCSVSGFSLTIYGVHWVRQPPGKGLEWLGVMWAGGNTDYNSALMSRLNISKDNSKSQVFLKVNSLQTDDTAMYYCTRDPDGYYVGWFFDVWGAGTTVTVSS
VL: DIVMTQSHKFMSTSVGDRVSITCKASQDVTNAVAWYQQKPGQSPKLLIYWASIRHTGVPDRFTGSRSGTDYTLTINSVQAEDLALYYCQQHYNTPLTFGAGTKLEIKR

Biological target: EGFRvIII (deletion mutant EGFR receptor) (human) (UniProt P00533)
Experiment: EGFRvIII-specific ELISA (Example 1)

| Binder | binding |
| --- | --- |
| B1 | binds |
| B2 | binds |
| B3 | binds |
| B4 | binds |
| B5 | binds |
